In PubChem BioAssay AID493014 (National Center for Advancing Translational Sciences (NCATS), 2011):
Where “and” joins values, the source holds several entries; their conditions need not be identical. Equal values may be shown once. Among all 340,000 compounds or so, about 170 (0.05%) were called active. The shares of active, inactive and inconclusive entries below differ from those in the screen. Calls come from the whole dose curve; as a rule, active = well fitted inhibition curve with a large enough effect in the signal ratio, with a control signal flat (not every such curve was filed as active); inconclusive = small, poorly fitted or top-dose-only effect, or effect the other way, or a change in a side signal; inactive = flat fitted curve, though single readings scatter; the % refers to the signal ratio. Where the call is inconclusive, the potency comes from a doubtful curve fit.

Assay: qHTS Assay to Find Inhibitors of Chronic Active B-Cell Receptor Signaling;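 for activity change, negative = inhibition: plate controls were basal doxycycline-induced cells for no effect and cells given 10 µM MG132 for full effect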
Conditions: ABC-DLBCL IkBa-CBG/CBR reporter, luminescence ratio (green luciferase fused to IkBa over red control in TMD8 lymphoma cells), 4 h
Summary of the method: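 Doxycycline induced both beetle luciferases in TMD8 lymphoma cells; IKK-driven degradation limits the IkappaBalpha-fused green signal, while red luminescence normalises for cell number and nonspecific effects. Compounds tested up to 46 uM, 4 hrs.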

[1] = activity change, negative = inhibition: at 46.1 µM (top of the series)
Potency is the fitted concentration of half-maximal effect.

CCN1C(=O)CS/C1=N\c1nccs1
activity change, negative = inhibition [1]: inconclusive: 0.172%

COc1ccccc1Cn1c(=S)[nH]c2cc(C(=O)NC(C)C)ccc2c1=O
activity change, negative = inhibition [1]: inactive

Oc1ccccc1-c1nc(NCc2cccnc2)c2ccccc2n1
Potency [1]: inconclusive: 15.8 µM [rising, partial curve, poor fit]

COC(=O)c1coc(-c2ccc(C)cc2)c1C(=O)OC
activity change, negative = inhibition [1]: inconclusive: 4.54%

O=C(COc1ccccc1C(=O)NCc1ccccc1)Nc1ccccc1
activity change, negative = inhibition [1]: inconclusive: -10.6%

Cc1cccc(NC(=O)Cn2nnc3ccccc32)c1
activity change, negative = inhibition [1]: inconclusive: 20.7%

COc1ccc(OCCN2CCN(C(=O)c3ccc(OC)c(OC)c3)CC2)cc1
activity change, negative = inhibition [1]: inconclusive: 0.434%

CCOC(=O)c1[nH]c(C)c(C(=O)NCc2ccc(Cl)cc2)c1C
activity change, negative = inhibition [1]: inactive

Cc1ccc(C(=O)C2CCN(C(=O)c3ccc(C)cc3)CC2)cc1
activity change, negative = inhibition [1]: inconclusive: -16.8%

Cc1cccc(NC(=O)Cc2ccc(F)cc2)c1
Potency [1]: inconclusive: 2.31 µM [rising, full curve, poor fit]

C/C(=N\NC(=O)c1ccc([N+](=O)[O-])cc1Cl)c1ccccc1
activity change, negative = inhibition [1]: inconclusive: 9.48%

C/C(N)=C(/C#N)C(=O)COC(=O)c1cc(-c2ccc(C)cc2)nc2ccccc12
activity change, negative = inhibition [1]: inconclusive: -0.55%

O=C(OCCN1CCCCC1)c1ccccc1Br
activity change, negative = inhibition [1]: inconclusive: 2%

COCCNC(=O)/C(C#N)=C/C=C/c1ccccc1[N+](=O)[O-]
Potency [1]: inconclusive: 17.8 µM [falling, partial curve]

CCOc1ccc(CN(C)C(=O)CCl)cc1
Potency [1]: inconclusive: 35.5 µM [falling, single point]

COC(=O)CSc1nnc(NC(=O)C2CC(=O)N(c3ccc(F)cc3)C2)s1 (centres undefined)
activity change, negative = inhibition [1]: inconclusive: 3.02%

O=C1OC(c2ccccc2)=C/C1=C/N1CCOCC1
activity change, negative = inhibition [1]: inactive

COc1ccc(NC(=O)c2ccc([N+](=O)[O-])o2)cc1
activity change, negative = inhibition [1]: inconclusive: -7.99%

Cc1ccc(C(=O)c2oc3ccccc3c2NC(=O)c2cc(-c3ccccc3O)n[nH]2)cc1
Potency [1]: inconclusive: 20.6 µM [cytotoxic, single point]

Cc1ccc(OCC(=O)N/N=C/c2cn(C)c3ccccc23)cc1
activity change, negative = inhibition [1]: inactive

Cc1ccc(C(=O)/C=C/NNC(=O)c2ccccc2O)cc1
Potency [1]: inconclusive: 35.5 µM [rising, single point]

O=C(CNC(=S)N(Cc1ccccc1)Cc1ccccc1F)NCc1ccccc1
activity change, negative = inhibition [1]: inconclusive: -1.61%

COc1ccc(OCc2nnc(SCc3ccc(C(=O)O)cc3)o2)cc1
activity change, negative = inhibition [1]: inactive

O=C(NC(=S)N1CCN(c2ccc(C(F)(F)F)cc2[N+](=O)[O-])CC1)c1cccs1
Potency [1]: inconclusive: 18.4 µM [falling, single point]

CCn1c2ccccc2c2nnc(SCCCn3c(=O)[nH]c4ccccc43)nc21
activity change, negative = inhibition [1]: inconclusive: -3.1%

O=C(O)c1ccc(-c2nc(-c3ccccc3)c(-c3ccccc3)[nH]2)cc1
Potency [1]: inconclusive: 29.1 µM [falling, partial curve, poor fit]

Cn1c(=O)c2c(nc(NN=C3CCCC3)n2C)n(C)c1=O
activity change, negative = inhibition [1]: inconclusive: 25.7%

CC(=O)Nc1cccc(N2C(=O)CC(N3CCC(C(=O)N4CCCCC4)CC3)C2=O)c1 (centres undefined)
activity change, negative = inhibition [1]: inactive

O=C(NC1CCCCC1)C(c1cccs1)N(C(=O)c1ccccn1)c1ccccc1 (centres undefined)
activity change, negative = inhibition [1]: inactive

CN(C)/C=N/n1cnc2ccccc2c1=O
activity change, negative = inhibition [1]: inconclusive: -1.02%

CCOC(=O)C1=CNS(=O)(=O)NC1c1ccc(C(F)(F)F)cc1 (centres undefined)
activity change, negative = inhibition [1]: inconclusive: 0.0465%

C=CCn1c(SCC(=O)Nc2ccc(NC(C)=O)cc2)nc2sc(C)c(C)c2c1=O
activity change, negative = inhibition [1]: inconclusive: -5.47%

C/C(=N/NC(=O)c1cc(C)[nH]n1)c1ccco1
activity change, negative = inhibition [1]: inconclusive: -12.1%

O=C(Nc1ncc([N+](=O)[O-])s1)c1cccs1
Potency [1]: inconclusive: 5.01 µM [falling, partial curve] and inconclusive: 5.62 µM [rising, partial curve]

Cc1cccc(C(=O)N/N=C/c2ccc[nH]2)c1
Potency [1]: inconclusive: 29.1 µM [falling, single point]

COc1cc(C(=O)O[C@H]2CC(C)=CC[C@@]3(C)CC[C@@](O)(C(C)C)[C@H]23)ccc1O
activity change, negative = inhibition [1]: inconclusive: -0.949%

CCOc1cc(/C=C\[N+](=O)[O-])ccc1OCC(=O)Nc1ccccc1C
activity change, negative = inhibition [1]: inconclusive: -28%

O=C(CN1CCOCC1)Nc1ncccn1
Potency [1]: inconclusive: 2.31 µM [falling, partial curve, poor fit]

CCc1ccc(NC(=O)CN(c2cc(C)cc(C)c2)S(=O)(=O)c2c(C)[nH]c(=O)[nH]c2=O)cc1
activity change, negative = inhibition [1]: inconclusive: 5.52%

CC(C)CC(=O)N(c1nnc(-c2cccnc2)s1)C1CCCC1
activity change, negative = inhibition [1]: inconclusive: 2.27%

O=C(CCc1ccc(O)c(O)c1)NNC(=S)NCCc1ccccc1
activity change, negative = inhibition [1]: inconclusive: -0.883%

COc1ccc(CN2C(=O)C(Cc3ccccc3)Nc3ncnc(N4CCc5ccccc5C4)c32)cc1 (centres undefined)
Potency [1]: inconclusive: 18.4 µM [falling, partial curve, poor fit]

Nc1ncnc2c1ncn2[C@@H]1O[C@H](CNC(=O)[C@@H](N)C2CCCCC2)[C@@H](O)[C@H]1O
activity change, negative = inhibition [1]: inconclusive: 1.37%

Cc1ccc2c(c1)c1c(n2CC(O)CN2CCCCCC2)CCCC1 (centres undefined)
activity change, negative = inhibition [1]: inactive

C[C@@H]1CN([C@H](C)CO)C(=O)c2cc(NS(=O)(=O)c3ccc(F)cc3)ccc2O[C@@H]1CN(C)Cc1ccc(Cl)c(Cl)c1
activity change, negative = inhibition [1]: inconclusive: 0.573%

Cc1c(NC(=O)c2cccc(NC(=O)COc3ccc(C#N)cc3)c2)c(=O)n(-c2ccccc2)n1C
activity change, negative = inhibition [1]: inactive

CCCCC(C(=O)NC1CCCC1)N(Cc1ccco1)C(=O)Cn1nnc(-c2ccc(F)cc2)n1 (centres undefined)
Potency [1]: inconclusive: 32.6 µM [falling, single point]

CN(C)c1cccc(C(=O)NCc2ccc3c(c2)OCO3)c1
activity change, negative = inhibition [1]: inconclusive: -8.3%

Cc1ccc(Nc2oc(C)nc2C#N)cc1
activity change, negative = inhibition [1]: inconclusive: -15.6%

O=C(C1=C[C@@H](c2coc3ccccc3c2=O)C[C@@H](OCCCCO)O1)N1CCN(Cc2ccc3c(c2)OCO3)CC1
Potency [1]: inconclusive: 15.8 µM [falling, single point]

COc1ccc(N(CC(=O)N2CCN(c3ccc(F)cc3)CC2)S(=O)(=O)c2c(C)noc2C)cc1
activity change, negative = inhibition [1]: inactive

COc1ccccc1CC(=O)Nc1ccc2[nH]ncc2c1
activity change, negative = inhibition [1]: inconclusive: 0.453%

Cc1ccc(-n2cc(-c3ccc([N+](=O)[O-])cc3)[nH]c2=S)c(C)c1
activity change, negative = inhibition [1]: inconclusive: 2.87%

CC(=O)SC(C[N+](=O)[O-])c1cn(C(C)=O)c2ccccc12 (centres undefined)
Potency [1]: inconclusive: 15.8 µM [falling, single point]

Cc1ccc(C(=O)NCC(=O)NC23CC4CC(CC(C4)C2)C3)cc1
activity change, negative = inhibition [1]: inactive

O=C(Nc1nc2ccc(SC(F)F)cc2s1)c1ccc(NS(=O)(=O)c2ccc(F)c(F)c2)cc1
activity change, negative = inhibition [1]: inconclusive: 2.42%

COc1ccc(C(O)c2nc3ccccc3n2C(C)C)cc1 (centres undefined)
activity change, negative = inhibition [1]: inconclusive: -18.9%

COc1ccc2c(c1)c(=O)oc1c(C)c(OC(C)C(=O)NCC3CCC(C(=O)O)CC3)ccc12 (centres undefined)
Potency [1]: inconclusive: 10 µM [rising, partial curve, poor fit]

Cc1cc(C)cc(NC(=O)CSc2nnc(CNC(=O)c3cccs3)o2)c1
Potency [1]: inconclusive: 29.1 µM [falling, single point]

CSc1cc(-c2ccc(Cl)cc2)n(Cc2ccccc2)c(=O)c1C#N
Potency [1]: inconclusive: 3.66 µM [rising, partial curve, poor fit]

CNC(=O)c1ccccc1NC(=O)c1c(O)c2c([nH]c1=O)CCCC2
activity change, negative = inhibition [1]: inconclusive: 0.242%

O=C(CSc1ccc(C(F)(F)F)cc1[N+](=O)[O-])Nc1ccc2ccccc2c1
activity change, negative = inhibition [1]: inconclusive: 2%

CCOc1ccc(-n2c(CCc3ccccc3)n[nH]c2=S)cc1
activity change, negative = inhibition [1]: inconclusive: 7.4%

O=c1c2cc(N3CCOCC3)ccc2[nH]c(=S)n1Cc1cccc(Cl)c1
activity change, negative = inhibition [1]: inactive

COCCCNC(=S)N1CCCN(c2nc3cc(C)ccc3cc2C#N)CC1
activity change, negative = inhibition [1]: inactive

O=c1c2cn[nH]c2nc(SCc2c(F)cccc2F)n1-c1ccc(Cl)cc1
activity change, negative = inhibition [1]: inconclusive: 8.33%
activity change, negative = inhibition (at 46.1 µM (top of the series)): inactive: -3.6%

COc1ccccc1NC(=O)NCCC1=CCCCC1
Potency [1]: inconclusive: 15.8 µM [falling, single point]

CC(=O)c1ccc(NC(=O)CN2CCN(c3ncccn3)CC2)cc1
activity change, negative = inhibition [1]: inconclusive: 20.3%

CCOCCCNS(=O)(=O)c1ccc(NC(=O)C2CC(=O)N(c3ccc(C)cc3)C2)cc1 (centres undefined)
activity change, negative = inhibition [1]: inactive

OCC1(Cc2cccc(C(F)(F)F)c2)CCN(Cc2cc(F)cc(F)c2)CC1
activity change, negative = inhibition [1]: inactive

COc1ccc(CCNC(=S)NC2CCN(Cc3ccccc3)CC2)cc1OC
activity change, negative = inhibition [1]: inconclusive: 6.95%

Cc1oc(=O)cc(OCc2ccccc2)c1C
activity change, negative = inhibition [1]: inconclusive: 3.2%

COCCCn1c(C(=O)Nc2ccc3c(c2)OCO3)cc2c(=O)n3ccccc3nc21
activity change, negative = inhibition [1]: inactive

COc1ccc(/C=C/C(=O)c2sc(-c3ccccc3)nc2C)cc1
Potency [1]: inconclusive: 5.8 µM [rising, partial curve]

CSc1ncc(C(=O)Nc2ccc(C)cc2C)c(C)n1
activity change, negative = inhibition [1]: inconclusive: 8.44%

Cc1cc(C)c2c(N)c3ccccc3nc2n1
activity change, negative = inhibition [1]: inconclusive: 17.4%

Cc1cc(NS(=O)(=O)c2ccc(NC(=O)/C=C/c3ccccc3Cl)cc2)no1
Potency [1]: inconclusive: 20 µM [falling, partial curve, poor fit]

CCC12CN3CCN(CC(C3)/C1=N\NC(=O)c1ccc(F)cc1)C2
Potency [1]: inconclusive: 5.01 µM [falling, partial curve, poor fit]
